Reference: the supplement of paper PMC10849652
The list shows a part of the results.

Protein sequences, listed by entry. Tags and fused reporters are not part of them. Lines headed by an entry give the natural chain unless they say otherwise; changes in a name come on top.
UniProt Q9UNX4: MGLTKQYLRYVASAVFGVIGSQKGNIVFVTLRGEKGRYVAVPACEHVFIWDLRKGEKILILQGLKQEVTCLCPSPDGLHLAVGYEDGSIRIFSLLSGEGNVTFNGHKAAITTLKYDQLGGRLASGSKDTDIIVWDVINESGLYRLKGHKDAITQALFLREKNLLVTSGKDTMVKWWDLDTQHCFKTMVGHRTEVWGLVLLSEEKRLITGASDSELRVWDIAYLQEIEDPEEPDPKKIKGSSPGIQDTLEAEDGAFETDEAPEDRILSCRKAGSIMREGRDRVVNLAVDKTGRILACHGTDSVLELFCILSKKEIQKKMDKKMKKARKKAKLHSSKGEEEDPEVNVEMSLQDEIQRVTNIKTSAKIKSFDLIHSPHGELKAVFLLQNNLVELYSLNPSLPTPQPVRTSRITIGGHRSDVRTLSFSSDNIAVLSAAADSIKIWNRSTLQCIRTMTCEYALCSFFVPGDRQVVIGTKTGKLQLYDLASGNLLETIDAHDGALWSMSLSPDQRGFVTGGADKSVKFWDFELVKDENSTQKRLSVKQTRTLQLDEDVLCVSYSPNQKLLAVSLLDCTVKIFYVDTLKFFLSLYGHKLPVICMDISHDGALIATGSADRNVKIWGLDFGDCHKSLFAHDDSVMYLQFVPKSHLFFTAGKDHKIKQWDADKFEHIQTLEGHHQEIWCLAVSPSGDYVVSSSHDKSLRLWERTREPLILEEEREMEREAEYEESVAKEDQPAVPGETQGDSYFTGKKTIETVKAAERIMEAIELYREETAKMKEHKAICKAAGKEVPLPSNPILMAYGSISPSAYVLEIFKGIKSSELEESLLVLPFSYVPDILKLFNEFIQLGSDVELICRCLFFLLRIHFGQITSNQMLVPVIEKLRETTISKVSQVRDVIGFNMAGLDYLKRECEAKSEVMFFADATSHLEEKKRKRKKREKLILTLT
UniProt Q96S15: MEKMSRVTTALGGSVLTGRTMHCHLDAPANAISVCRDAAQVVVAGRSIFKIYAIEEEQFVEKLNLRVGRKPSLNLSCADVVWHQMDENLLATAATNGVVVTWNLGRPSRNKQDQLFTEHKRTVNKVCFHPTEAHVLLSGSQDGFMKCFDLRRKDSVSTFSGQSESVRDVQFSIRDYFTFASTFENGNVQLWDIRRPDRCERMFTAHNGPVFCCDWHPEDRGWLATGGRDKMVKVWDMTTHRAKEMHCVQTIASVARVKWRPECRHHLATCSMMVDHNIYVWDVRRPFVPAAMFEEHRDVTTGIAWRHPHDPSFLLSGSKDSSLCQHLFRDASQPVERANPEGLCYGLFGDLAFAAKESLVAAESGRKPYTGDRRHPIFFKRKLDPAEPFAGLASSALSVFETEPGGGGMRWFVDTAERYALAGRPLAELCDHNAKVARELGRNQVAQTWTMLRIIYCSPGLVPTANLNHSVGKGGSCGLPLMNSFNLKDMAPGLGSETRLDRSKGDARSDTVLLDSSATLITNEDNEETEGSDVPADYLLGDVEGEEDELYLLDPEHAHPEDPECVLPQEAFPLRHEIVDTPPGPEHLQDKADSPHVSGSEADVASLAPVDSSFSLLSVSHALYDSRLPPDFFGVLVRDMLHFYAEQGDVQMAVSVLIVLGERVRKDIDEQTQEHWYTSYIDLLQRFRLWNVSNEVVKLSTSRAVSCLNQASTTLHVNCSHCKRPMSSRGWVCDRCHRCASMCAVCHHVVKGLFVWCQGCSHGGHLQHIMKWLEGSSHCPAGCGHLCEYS
UniProt Q8IWB7: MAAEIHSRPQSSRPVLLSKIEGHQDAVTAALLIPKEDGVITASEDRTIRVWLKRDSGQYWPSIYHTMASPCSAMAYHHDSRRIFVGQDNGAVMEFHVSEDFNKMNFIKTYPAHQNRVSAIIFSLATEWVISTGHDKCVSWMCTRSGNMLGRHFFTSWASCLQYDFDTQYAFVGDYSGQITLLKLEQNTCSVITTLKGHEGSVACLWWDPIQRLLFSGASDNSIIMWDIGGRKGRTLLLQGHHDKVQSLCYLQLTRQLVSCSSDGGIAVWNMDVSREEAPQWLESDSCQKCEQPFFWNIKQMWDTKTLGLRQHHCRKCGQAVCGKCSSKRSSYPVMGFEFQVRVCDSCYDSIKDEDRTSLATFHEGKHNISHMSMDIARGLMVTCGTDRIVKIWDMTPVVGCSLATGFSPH
UniProt Q9UK41: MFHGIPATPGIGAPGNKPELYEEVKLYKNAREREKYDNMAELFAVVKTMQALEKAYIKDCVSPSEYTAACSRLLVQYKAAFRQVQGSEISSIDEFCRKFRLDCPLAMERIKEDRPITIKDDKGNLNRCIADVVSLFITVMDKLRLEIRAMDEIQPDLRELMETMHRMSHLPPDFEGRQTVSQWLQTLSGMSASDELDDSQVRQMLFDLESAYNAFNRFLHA
UniProt Q9Y6W5, whole entry, looked up: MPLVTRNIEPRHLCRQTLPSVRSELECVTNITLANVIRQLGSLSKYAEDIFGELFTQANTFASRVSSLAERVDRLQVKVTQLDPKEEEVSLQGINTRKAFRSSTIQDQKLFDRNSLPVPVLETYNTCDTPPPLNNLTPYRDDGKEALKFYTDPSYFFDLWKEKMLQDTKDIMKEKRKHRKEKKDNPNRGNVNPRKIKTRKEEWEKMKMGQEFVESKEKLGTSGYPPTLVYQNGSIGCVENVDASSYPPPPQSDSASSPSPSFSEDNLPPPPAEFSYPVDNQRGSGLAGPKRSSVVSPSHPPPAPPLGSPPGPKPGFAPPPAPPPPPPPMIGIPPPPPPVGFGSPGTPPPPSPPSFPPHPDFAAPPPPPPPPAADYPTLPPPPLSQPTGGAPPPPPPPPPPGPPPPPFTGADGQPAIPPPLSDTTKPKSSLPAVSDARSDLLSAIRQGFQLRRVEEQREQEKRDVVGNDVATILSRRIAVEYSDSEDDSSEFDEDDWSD
UniProt O75554: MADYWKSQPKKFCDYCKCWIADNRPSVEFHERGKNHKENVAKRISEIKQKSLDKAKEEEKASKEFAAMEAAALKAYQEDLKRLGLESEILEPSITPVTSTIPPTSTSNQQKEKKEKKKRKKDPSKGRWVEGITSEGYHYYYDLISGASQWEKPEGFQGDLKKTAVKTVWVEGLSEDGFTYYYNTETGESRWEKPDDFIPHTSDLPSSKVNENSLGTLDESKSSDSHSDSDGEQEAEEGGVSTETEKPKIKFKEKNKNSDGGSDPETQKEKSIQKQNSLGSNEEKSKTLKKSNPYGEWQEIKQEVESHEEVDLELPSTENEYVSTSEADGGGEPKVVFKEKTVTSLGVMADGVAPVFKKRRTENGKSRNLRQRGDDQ
UniProt Q9UGM6: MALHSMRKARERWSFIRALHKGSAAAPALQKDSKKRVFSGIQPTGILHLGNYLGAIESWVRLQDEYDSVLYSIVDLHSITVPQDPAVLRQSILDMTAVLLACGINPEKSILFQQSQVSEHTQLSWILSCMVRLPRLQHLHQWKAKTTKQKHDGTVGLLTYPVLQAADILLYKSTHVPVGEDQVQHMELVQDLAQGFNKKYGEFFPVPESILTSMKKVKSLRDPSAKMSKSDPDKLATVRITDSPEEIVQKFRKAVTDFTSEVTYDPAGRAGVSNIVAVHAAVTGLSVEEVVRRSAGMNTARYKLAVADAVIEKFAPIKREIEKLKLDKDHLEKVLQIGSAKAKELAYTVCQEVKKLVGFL
UniProt Q9Y2I8: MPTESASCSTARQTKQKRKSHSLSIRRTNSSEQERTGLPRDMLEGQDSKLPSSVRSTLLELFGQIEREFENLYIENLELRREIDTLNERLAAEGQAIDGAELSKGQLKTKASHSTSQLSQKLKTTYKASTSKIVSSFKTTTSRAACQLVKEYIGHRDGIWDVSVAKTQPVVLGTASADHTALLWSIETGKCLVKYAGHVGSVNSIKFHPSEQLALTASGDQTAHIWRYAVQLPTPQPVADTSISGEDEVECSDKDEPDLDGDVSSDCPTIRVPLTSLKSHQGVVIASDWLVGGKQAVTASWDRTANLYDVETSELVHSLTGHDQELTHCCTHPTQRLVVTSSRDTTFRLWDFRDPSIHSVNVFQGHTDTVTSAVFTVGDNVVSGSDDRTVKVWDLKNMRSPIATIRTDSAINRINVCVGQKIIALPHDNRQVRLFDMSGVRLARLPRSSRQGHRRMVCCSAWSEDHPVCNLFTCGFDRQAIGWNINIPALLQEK
UniProt Q5MNZ6: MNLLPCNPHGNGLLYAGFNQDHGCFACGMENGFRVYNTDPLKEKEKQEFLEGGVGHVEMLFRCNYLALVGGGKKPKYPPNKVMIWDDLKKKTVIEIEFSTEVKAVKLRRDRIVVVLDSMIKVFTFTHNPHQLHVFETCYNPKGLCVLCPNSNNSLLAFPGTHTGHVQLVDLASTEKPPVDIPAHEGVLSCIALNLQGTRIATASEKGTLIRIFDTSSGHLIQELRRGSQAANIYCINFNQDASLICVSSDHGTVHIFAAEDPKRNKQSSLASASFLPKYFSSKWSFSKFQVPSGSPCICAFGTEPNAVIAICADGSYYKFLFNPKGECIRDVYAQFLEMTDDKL
UniProt Q8N2E2: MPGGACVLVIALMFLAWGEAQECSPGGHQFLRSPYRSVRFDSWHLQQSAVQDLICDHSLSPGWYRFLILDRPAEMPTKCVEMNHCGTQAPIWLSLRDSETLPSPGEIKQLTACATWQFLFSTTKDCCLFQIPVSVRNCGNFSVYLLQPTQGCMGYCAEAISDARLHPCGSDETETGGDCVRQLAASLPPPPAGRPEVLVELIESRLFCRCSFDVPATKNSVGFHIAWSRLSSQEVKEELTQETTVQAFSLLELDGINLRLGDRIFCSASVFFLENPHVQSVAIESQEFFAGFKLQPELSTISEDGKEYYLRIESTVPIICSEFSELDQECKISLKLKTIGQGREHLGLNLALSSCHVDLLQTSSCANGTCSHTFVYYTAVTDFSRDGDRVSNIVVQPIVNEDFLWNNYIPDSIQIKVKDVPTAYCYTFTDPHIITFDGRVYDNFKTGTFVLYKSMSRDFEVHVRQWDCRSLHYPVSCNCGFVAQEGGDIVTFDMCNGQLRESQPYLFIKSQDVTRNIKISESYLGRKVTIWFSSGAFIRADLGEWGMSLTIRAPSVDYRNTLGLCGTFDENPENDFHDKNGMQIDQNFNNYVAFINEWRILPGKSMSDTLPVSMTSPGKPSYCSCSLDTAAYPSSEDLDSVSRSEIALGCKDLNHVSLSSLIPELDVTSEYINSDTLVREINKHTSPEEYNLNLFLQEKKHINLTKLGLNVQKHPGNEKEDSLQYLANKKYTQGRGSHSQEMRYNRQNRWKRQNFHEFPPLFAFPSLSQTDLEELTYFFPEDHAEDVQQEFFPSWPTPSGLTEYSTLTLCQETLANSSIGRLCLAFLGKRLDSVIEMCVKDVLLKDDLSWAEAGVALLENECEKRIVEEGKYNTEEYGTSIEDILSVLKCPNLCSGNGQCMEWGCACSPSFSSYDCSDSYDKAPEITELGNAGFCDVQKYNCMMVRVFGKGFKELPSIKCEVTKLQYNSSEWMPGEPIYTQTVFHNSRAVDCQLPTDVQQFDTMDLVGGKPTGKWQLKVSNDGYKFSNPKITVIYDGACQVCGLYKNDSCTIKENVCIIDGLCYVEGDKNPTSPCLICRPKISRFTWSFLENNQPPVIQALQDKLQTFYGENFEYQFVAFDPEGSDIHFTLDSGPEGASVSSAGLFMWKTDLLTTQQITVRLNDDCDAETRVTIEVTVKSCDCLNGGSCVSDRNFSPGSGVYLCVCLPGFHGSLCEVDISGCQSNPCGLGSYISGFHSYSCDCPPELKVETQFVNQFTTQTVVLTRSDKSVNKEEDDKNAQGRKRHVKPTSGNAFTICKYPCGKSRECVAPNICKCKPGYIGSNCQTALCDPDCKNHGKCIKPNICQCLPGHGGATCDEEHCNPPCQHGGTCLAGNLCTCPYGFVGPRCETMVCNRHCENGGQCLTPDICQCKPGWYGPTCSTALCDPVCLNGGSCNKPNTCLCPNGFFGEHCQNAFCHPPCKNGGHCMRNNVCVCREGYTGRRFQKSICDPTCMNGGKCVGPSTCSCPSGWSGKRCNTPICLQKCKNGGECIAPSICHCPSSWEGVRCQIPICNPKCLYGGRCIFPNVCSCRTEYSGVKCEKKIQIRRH

Assays:
Test in all cases: log2 fold change, soluble protein after heating vs DMSO (PISA); higher = thermal stabilisation; K562 lysate, 10 uM; active = over 0.2 and 3.5 SD of the protein, either way, in both replicates (recomputed)
vemurafenib = compound: CCCS(=O)(=O)Nc1ccc(F)c(C(=O)c2c[nH]c3ncc(-c4ccc(Cl)cc4)cc23)c1F [vemurafenib]
Procedure, shortened: (§1)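 Dounce homogenisation of K562 pellets in PBS pH 7.4 with 1 mM MgCl2 produced a crude extract, used at 1 mg/mL protein. Exposure to 10 μM compound lasted 30 min, and aliquots were then heated for 3 min across 48°C-58°C, pooled and brought to 0.5% NP-40 at 4°C. The supernatant after 21,000xg for 90 min was quantified by TMTpro 16plex LC-MS/MS with channel sums equalised. Duplicate values are given as log-two fold change in thermal stability relative to solvent controls.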

[1] = compound: CCCS(=O)(=O)Nc1ccc(F)c(C(=O)c2c[nH]c3ncc(Cl)cc23)c1F
Procedure, shortened: as §1

barasertib = compound: CCN(CCCOc1ccc2c(Nc3cc(CC(=O)Nc4cccc(F)c4)[nH]n3)ncnc2c1)CCOP(=O)(O)O [barasertib]
Procedure, shortened: as §1

[2] = compound: CC[C@@H]1C(=O)N(C)c2cnc(Nc3ccc(C(=O)NC4CCN(C)CC4)cc3OC)nc2N1C1CCCC1
Procedure, shortened: as §1

volasertib = compound: CC[C@@H]1C(=O)N(C)c2cnc(Nc3ccc(C(=O)N[C@H]4CC[C@H](N5CCN(CC6CC6)CC5)CC4)cc3OC)nc2N1C(C)C [volasertib]
Procedure, shortened: as §1

[3] = compound: CCn1c(C(=O)N(C2CC2)C2CC2)cc2c3c(ncn3C)c(Nc3cc(C)n(C)n3)nc21
Procedure, shortened: as §1

[4] = compound: CCn1cc(-c2ccnc3[nH]c(-c4cccc(CN(C)C)c4)cc23)c(-c2ccc(NC(=O)N(C)C)cc2)n1
Procedure, shortened: as §1

[5] = compound: CN1CCC(CNc2ccc3ncc(-c4cccc(OC(F)(F)F)c4)n3n2)CC1
Procedure, shortened: as §1

saracatinib = compound: CN1CCN(CCOc2cc(OC3CCOCC3)c3c(Nc4c(Cl)ccc5c4OCO5)ncnc3c2)CC1 [saracatinib]
Procedure, shortened: as §1

sotrastaurin = compound: CN1CCN(c2nc(C3=C(c4c[nH]c5ccccc45)C(=O)NC3=O)c3ccccc3n2)CC1 [sotrastaurin]
Procedure, shortened: as §1

alvocidib = compound: CN1CC[C@H](c2c(O)cc(O)c3c(=O)cc(-c4ccccc4Cl)oc23)[C@H](O)C1 [alvocidib]
Procedure, shortened: as §1

Tubastatin A = compound: CN1CCc2c(c3ccccc3n2Cc2ccc(C(=O)NO)cc2)C1 [Tubastatin A]
Procedure, shortened: as §1

[6] = compound: CNC(=O)C1=CC=CC=C1NC2=NC(=NC=C2Cl)NC3=C(C=C(C=C3)N4CCOCC4)OC
Procedure, shortened: as §1

defactinib = compound: CNC(=O)c1ccc(Nc2ncc(C(F)(F)F)c(NCc3nccnc3N(C)S(C)(=O)=O)n2)cc1 [defactinib]
Procedure, shortened: as §1

[7] = compound: CNc1nc(-c2ccc3c(N)n[nH]c3c2)cc(N2C[C@@H](C(=O)NC3CCCCC3)CC[C@H]2C)n1
Procedure, shortened: as §1

encorafenib = compound: COC(=O)N[C@@H](C)CNc1nccc(-c2cn(C(C)C)nc2-c2cc(Cl)cc(NS(C)(=O)=O)c2F)n1 [encorafenib]
Procedure, shortened: as §1

[8] = compound: COC(=O)[C@H](CCSC)NC(=O)C1=C(C=C(C=C1)NC[C@H](CS)N)C2=CC=CC=C2
Procedure, shortened: as §1

alisertib = compound: COc1cc(Nc2ncc3c(n2)-c2ccc(Cl)cc2C(c2c(F)cccc2OC)=NC3)ccc1C(=O)O [alisertib]
Procedure, shortened: as §1

[9] = compound: COc1cc2nc(-c3cc(F)ccc3O)nc(N[C@@H]3CNC[C@H]3C(C)(C)O)c2cc1OC
Procedure, shortened: as §1

gefitinib = compound: COc1cc2ncnc(Nc3ccc(F)c(Cl)c3)c2cc1OCCCN1CCOCC1 [gefitinib]
Procedure, shortened: as §1

Measured: log2 fold change

VPS26A (UniProt O75436)
inactive: vemurafenib 0.012 | [1] 0.004 | barasertib 0.006 | [2] -0.014 | volasertib 0.027 | [3] -0.026 | [4] -0.082 | [5] 0.06 | saracatinib 0.003 | sotrastaurin 0.017 | alvocidib 0.001 | Tubastatin A 0.016 | [6] -0.007 | defactinib -0.001 | [7] 0.018 | encorafenib -0.001 | [8] -0.003 | alisertib 0.006 | [9] 0.021 | gefitinib 0.012

WDR3 (UniProt Q9UNX4)
inactive: vemurafenib -0.01 | [1] 0.011 | barasertib 0.042 | [2] -0.063 | volasertib -0.043 | [3] 0.01 | [4] -0.024 | [5] 0.019 | saracatinib 0.002 | sotrastaurin 0.062 | alvocidib 0.008 | Tubastatin A -0.099 | [6] -0.013 | defactinib 0.031 | [7] -0.048 | encorafenib -0.008 | [8] 0.046 | alisertib 0.03 | [9] -0.007 | gefitinib -0.01

VKORC1L1, A0A3B3ISV4
inactive: vemurafenib -0.023 | [1] -0.046 | barasertib 0.136 | [2] -0.162 | volasertib 0.028 | [3] 0.033 | [4] -0.116 | [5] 0.022 | saracatinib -0.016 | sotrastaurin -0.052 | alvocidib -0.032 | Tubastatin A 0.026 | [6] 0.015 | defactinib 0.036 | [7] 0.097 | encorafenib 0.026 | [8] 0.04 | alisertib 0.041 | [9] 0.011 | gefitinib -0.077

Two entries picked at random from the list so far:
VKORC1L1, A0A3B3ISV4
inactive: vemurafenib -0.023 | [1] -0.046 | barasertib 0.136 | [2] -0.162 | volasertib 0.028 | [3] 0.033 | [4] -0.116 | [5] 0.022 | saracatinib -0.016 | sotrastaurin -0.052 | alvocidib -0.032 | Tubastatin A 0.026 | [6] 0.015 | defactinib 0.036 | [7] 0.097 | encorafenib 0.026 | [8] 0.04 | alisertib 0.041 | [9] 0.011 | gefitinib -0.077

VPS26A (UniProt O75436)
inactive: vemurafenib 0.012 | [1] 0.004 | barasertib 0.006 | [2] -0.014 | volasertib 0.027 | [3] -0.026 | [4] -0.082 | [5] 0.06 | saracatinib 0.003 | sotrastaurin 0.017 | alvocidib 0.001 | Tubastatin A 0.016 | [6] -0.007 | defactinib -0.001 | [7] 0.018 | encorafenib -0.001 | [8] -0.003 | alisertib 0.006 | [9] 0.021 | gefitinib 0.012

Later entries

WDR26, A0A499FIZ0
inactive: vemurafenib -0.033 | [1] 0.002 | barasertib -0.003 | [2] 0.009 | volasertib 0.006 | [3] 0.014 | [4] -0.029 | [5] 0.015 | saracatinib -0.026 | sotrastaurin 0.004 | alvocidib 0.012 | Tubastatin A -0.064 | [6] 0.002 | defactinib -0.011 | [7] -0.129 | encorafenib 0.018 | [8] 0.014 | alisertib -0.023 | [9] 0.014 | gefitinib 0.038

WDR24 (UniProt Q96S15)
inactive: vemurafenib 0.083 | [1] -0.036 | barasertib 0.129 | [2] -0.055 | volasertib -0.035 | [3] 0.047 | [4] -0.026 | [5] 0.043 | saracatinib 0.078 | sotrastaurin 0.082 | alvocidib -0.001 | Tubastatin A -0.096 | [6] -0.032 | defactinib 0.053 | [7] -0.054 | encorafenib 0.022 | [8] 0.125 | alisertib -0.02 | [9] 0.021 | gefitinib -0.008

WDFY1 (UniProt Q8IWB7)
inactive: vemurafenib 0.04 | [1] -0.001 | barasertib 0.014 | [2] 0.01 | volasertib 0.008 | [3] -0.018 | [4] -0.021 | [5] 0.11 | saracatinib -0.013 | sotrastaurin 0.021 | alvocidib -0.028 | Tubastatin A 0.008 | [6] -0.028 | defactinib 0.034 | [7] -0.047 | encorafenib 0.027 | [8] -0.068 | alisertib -0.025 | [9] -0.008 | gefitinib 0.002

VPS28 (UniProt Q9UK41)
inactive: vemurafenib -0.012 | [1] 0.016 | barasertib 0.178 | [2] -0.035 | volasertib -0.012 | [3] 0.067 | [4] -0.208 | [5] 0.018 | saracatinib 0.01 | sotrastaurin -0.007 | alvocidib -0.018 | Tubastatin A -0.034 | [6] 0 | defactinib -0.018 | [7] -0.078 | encorafenib 0.046 | [8] 0.012 | alisertib -0.022 | [9] 0 | gefitinib 0.034

WASF2 (UniProt Q9Y6W5)
inactive: vemurafenib 0.034 | [1] 0.036 | barasertib -0.004 | [2] 0.011 | volasertib -0.019 | [3] 0.014 | [4] -0.007 | [5] 0.012 | saracatinib 0 | sotrastaurin -0.016 | alvocidib 0.014 | Tubastatin A -0.016 | [6] -0.006 | defactinib 0.003 | [7] -0.021 | encorafenib 0.017 | [8] -0.097 | alisertib -0.012 | [9] -0.01 | gefitinib 0.006

VPS29 isoform 2 (UniProt Q9UBQ0)
inactive: vemurafenib -0.044 | [1] 0.018 | barasertib 0.026 | [2] -0.02 | volasertib 0.002 | [3] -0.009 | [4] 0.037 | [5] 0.051 | saracatinib 0 | sotrastaurin -0.058 | alvocidib 0.008 | Tubastatin A 0.033 | [6] -0.037 | defactinib -0.023 | [7] -0.001 | encorafenib 0.003 | [8] 0.003 | alisertib -0.007 | [9] 0.009 | gefitinib -0.027

WBP4 (UniProt O75554)
inactive: vemurafenib 0.017 | [1] 0.016 | barasertib -0.066 | [2] 0.079 | volasertib 0.003 | [3] -0.043 | [4] -0.004 | [5] 0.063 | saracatinib -0.01 | sotrastaurin 0.019 | alvocidib 0.019 | Tubastatin A 0.038 | [6] -0.011 | defactinib 0.018 | [7] 0.021 | encorafenib 0.005 | [8] -0.024 | alisertib -0.029 | [9] 0.004 | gefitinib -0.047

WARS2 (UniProt Q9UGM6)
inactive: vemurafenib 0.001 | [1] 0.038 | barasertib -0.039 | [2] -0.013 | volasertib -0.044 | [3] 0.003 | [4] 0.042 | [5] -0.058 | saracatinib -0.016 | sotrastaurin 0.023 | alvocidib -0.033 | Tubastatin A -0.001 | [6] 0.046 | defactinib 0.034 | [7] 0.055 | encorafenib -0.001 | [8] 0.029 | alisertib 0.054 | [9] -0.042 | gefitinib 0.069

WDR37 isoform 2 (UniProt Q9Y2I8)
inactive: vemurafenib -0.02 | [1] 0.026 | barasertib 0.028 | [2] -0.025 | volasertib -0.04 | [3] -0.021 | [4] -0.019 | [5] -0.072 | saracatinib -0.026 | sotrastaurin 0.014 | alvocidib 0.074 | Tubastatin A -0.017 | [6] 0.014 | defactinib -0.021 | [7] 0.066 | encorafenib 0 | [8] 0.054 | alisertib -0.027 | [9] 0.074 | gefitinib 0.026

WDR45B (UniProt Q5MNZ6)
inactive: vemurafenib 0 | [1] 0.005 | barasertib -0.01 | [2] 0.054 | volasertib 0.027 | [3] 0.034 | [4] -0.021 | [5] 0.024 | saracatinib 0.029 | sotrastaurin -0.017 | alvocidib -0.073 | Tubastatin A -0.03 | [6] 0.035 | defactinib -0.018 | [7] 0.023 | encorafenib -0.031 | [8] -0.004 | alisertib -0.035 | [9] 0.006 | gefitinib 0.069

VWDE (UniProt Q8N2E2)
inactive: vemurafenib -0.033 | [1] 0.043 | barasertib -0.048 | [2] 0.041 | volasertib 0.08 | [3] -0.019 | [4] 0 | [5] 0.004 | saracatinib -0.006 | sotrastaurin 0.012 | alvocidib -0.037 | Tubastatin A 0.048 | [6] -0.046 | defactinib 0.064 | [7] 0.055 | encorafenib 0.013 | [8] -0.047 | alisertib 0.006 | [9] 0.07 | gefitinib 0.001

VTN (UniProt P04004)
active: [4] -0.615
inactive: vemurafenib 0.029 | [1] 0.058 | barasertib 0.043 | [2] 0.063 | volasertib -0.001 | [3] 0.011 | [5] 0.289 | saracatinib 0.075 | sotrastaurin -0.012 | alvocidib -0.112 | Tubastatin A -0.012 | [6] -0.095 | defactinib 0.104 | [7] -0.061 | encorafenib 0.089 | [8] -0.074 | alisertib -0.041 | [9] 0.014 | gefitinib 0.009
